Our source for the binding values is PMC8197395.

Amino acid sequences for entries named in this document (tags omitted). Residues count along the entry.
UniProt P29372, residues 18-298: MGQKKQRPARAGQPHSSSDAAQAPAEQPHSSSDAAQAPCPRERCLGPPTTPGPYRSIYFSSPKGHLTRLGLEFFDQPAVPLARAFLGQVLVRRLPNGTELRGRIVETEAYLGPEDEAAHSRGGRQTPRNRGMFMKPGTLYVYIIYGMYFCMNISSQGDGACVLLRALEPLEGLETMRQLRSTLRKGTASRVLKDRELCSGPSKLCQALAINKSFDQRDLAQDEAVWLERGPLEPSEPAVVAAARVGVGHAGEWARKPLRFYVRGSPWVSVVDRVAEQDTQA

Results are given in words; binding and its absence hold for the method and conditions named. In cells and extracts the contact can be indirect. These calls come from enrichment with a bait or labelling near it, and not all partners need be listed. Where a sequence is shown, tags or fusion partners need not be part of it.

The target of the experiment is T1, Zeb1/GFP fusion protein (UniProt P37275).
T1 sequence: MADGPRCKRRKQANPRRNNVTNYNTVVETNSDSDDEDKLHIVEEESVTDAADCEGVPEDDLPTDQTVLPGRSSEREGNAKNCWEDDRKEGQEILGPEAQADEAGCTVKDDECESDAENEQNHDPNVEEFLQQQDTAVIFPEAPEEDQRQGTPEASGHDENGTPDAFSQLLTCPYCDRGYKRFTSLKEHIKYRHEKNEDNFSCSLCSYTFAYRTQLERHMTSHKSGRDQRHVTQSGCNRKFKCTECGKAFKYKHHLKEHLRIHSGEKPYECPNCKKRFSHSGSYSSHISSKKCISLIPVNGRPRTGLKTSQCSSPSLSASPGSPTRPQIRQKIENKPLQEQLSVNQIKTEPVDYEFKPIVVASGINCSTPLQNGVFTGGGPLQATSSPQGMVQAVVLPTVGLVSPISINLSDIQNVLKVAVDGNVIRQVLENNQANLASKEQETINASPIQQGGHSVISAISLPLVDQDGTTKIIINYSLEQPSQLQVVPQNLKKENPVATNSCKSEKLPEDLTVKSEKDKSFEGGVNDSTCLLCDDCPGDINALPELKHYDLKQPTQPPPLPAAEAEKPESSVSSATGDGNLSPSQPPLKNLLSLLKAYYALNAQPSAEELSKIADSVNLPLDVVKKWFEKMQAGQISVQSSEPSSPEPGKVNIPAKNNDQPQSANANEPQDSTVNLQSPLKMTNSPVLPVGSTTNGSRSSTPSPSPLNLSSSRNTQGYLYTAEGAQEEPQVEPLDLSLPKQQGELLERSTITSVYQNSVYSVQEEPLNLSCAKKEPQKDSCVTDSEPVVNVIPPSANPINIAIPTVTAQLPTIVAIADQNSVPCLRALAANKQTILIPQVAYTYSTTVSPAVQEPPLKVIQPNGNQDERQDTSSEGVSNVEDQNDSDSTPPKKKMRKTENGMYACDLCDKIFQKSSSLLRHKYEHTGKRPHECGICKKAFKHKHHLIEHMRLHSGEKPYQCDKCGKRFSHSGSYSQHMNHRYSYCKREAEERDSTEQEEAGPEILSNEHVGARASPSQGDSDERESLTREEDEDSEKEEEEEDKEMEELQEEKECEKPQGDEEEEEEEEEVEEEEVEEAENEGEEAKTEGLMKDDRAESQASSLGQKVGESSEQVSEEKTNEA
The experiment can be described thus: affinity purification with mass spectrometry; nuclear extracts of MCF-7/Zeb1 cells at 0, 24 and 72 h after doxycycline; Zeb1/GFP captured with llama nano-antibodies to GFP immobilised on sepharose; four washes with RIPA buffer; SDS-PAGE, in-gel trypsin digestion, LC-MALDI TOF/TOF.

Regarding “C-terminal-binding protein 2 (from UniProt P56545 1-445)”, the binding result was “binds”. On to MPG (from UniProt P29372 18-298), for which the binding result is reported as “binds”.
